Measurements published in article PMC10480499.
These are yes or no findings as the source states them, for the method shown. In cells and extracts the contact can be indirect. Some entries that bind do so weakly or less than the wild type. Tags and fused reporters may be left off the sequences shown.

The chains behind the UniProt entries cited, without tags or fusion partners.
UniProt Q16539: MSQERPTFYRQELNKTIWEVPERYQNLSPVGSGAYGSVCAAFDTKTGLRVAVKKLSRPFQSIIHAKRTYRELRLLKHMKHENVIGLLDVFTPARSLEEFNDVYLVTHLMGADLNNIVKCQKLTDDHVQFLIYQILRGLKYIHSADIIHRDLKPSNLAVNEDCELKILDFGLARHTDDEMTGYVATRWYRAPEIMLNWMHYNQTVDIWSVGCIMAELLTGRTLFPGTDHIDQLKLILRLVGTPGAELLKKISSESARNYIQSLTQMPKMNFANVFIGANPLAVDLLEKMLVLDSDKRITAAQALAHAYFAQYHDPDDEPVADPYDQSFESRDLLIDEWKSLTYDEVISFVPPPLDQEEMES

Target: T1, FLAG-tagged LKB1 (UniProt Q15831)
T1 sequence: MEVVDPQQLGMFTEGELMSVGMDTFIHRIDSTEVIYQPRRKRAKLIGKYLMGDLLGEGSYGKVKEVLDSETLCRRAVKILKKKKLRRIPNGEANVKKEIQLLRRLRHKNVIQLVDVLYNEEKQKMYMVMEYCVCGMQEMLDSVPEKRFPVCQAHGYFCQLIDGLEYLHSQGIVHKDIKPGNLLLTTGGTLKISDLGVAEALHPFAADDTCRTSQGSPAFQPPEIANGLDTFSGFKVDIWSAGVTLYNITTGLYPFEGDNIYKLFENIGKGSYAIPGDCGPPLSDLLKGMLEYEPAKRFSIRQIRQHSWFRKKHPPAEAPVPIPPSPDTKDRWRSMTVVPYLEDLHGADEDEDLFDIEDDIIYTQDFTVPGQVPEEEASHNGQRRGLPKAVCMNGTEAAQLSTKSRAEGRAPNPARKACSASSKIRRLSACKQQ
Experiment: co-IP; HepG2 cells co-transfected with Flag-LKB1 and HA-p38α MAPK for 24 h, then DMSO or 10 μM SB203580 for 24 h; NP40 lysis buffer (25 mM Tris pH 7.4, 150 mM NaCl, 5 mM EDTA, 1% NP-40); 500 μg lysate immunoprecipitated with anti-Flag antibody at 4 °C overnight, Protein A/G Sepharose; blotted with Flag-biotin and HA-biotin antibodies

binding: binds
Substance: HA-tagged p38α MAPK (from UniProt Q16539 1-360)
